Experimental data published in article PMC8274477.
Results are given in words; binding and its absence hold for the method and conditions named. Some binding calls cover weakened binding; strength is not graded here.

Protein sequences, listed by entry. Tags and fused reporters are not part of them.
UniProt Q7Z5L9: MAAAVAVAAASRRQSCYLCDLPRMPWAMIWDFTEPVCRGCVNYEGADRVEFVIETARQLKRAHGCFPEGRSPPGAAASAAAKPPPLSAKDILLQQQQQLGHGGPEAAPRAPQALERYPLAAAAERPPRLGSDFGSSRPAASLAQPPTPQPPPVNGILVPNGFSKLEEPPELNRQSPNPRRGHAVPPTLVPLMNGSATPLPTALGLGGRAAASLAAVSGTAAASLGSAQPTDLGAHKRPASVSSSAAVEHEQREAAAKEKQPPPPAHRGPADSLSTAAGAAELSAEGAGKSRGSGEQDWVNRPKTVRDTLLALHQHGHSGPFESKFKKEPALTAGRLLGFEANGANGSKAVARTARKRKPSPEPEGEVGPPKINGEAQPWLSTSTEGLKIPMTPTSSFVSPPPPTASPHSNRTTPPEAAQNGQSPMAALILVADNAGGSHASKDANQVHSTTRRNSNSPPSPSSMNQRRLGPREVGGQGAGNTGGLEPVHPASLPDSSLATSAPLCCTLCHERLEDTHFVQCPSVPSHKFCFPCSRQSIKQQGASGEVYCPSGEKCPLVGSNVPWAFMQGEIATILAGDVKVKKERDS
UniProt Q9BUP3: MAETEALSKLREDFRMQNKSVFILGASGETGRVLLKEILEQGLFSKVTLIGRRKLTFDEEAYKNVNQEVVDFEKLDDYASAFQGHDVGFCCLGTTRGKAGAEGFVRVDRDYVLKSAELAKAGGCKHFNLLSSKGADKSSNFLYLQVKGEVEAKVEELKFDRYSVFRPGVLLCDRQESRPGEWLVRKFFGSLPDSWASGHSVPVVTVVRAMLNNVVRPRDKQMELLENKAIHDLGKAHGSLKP
UniProt Q9Y6Q9: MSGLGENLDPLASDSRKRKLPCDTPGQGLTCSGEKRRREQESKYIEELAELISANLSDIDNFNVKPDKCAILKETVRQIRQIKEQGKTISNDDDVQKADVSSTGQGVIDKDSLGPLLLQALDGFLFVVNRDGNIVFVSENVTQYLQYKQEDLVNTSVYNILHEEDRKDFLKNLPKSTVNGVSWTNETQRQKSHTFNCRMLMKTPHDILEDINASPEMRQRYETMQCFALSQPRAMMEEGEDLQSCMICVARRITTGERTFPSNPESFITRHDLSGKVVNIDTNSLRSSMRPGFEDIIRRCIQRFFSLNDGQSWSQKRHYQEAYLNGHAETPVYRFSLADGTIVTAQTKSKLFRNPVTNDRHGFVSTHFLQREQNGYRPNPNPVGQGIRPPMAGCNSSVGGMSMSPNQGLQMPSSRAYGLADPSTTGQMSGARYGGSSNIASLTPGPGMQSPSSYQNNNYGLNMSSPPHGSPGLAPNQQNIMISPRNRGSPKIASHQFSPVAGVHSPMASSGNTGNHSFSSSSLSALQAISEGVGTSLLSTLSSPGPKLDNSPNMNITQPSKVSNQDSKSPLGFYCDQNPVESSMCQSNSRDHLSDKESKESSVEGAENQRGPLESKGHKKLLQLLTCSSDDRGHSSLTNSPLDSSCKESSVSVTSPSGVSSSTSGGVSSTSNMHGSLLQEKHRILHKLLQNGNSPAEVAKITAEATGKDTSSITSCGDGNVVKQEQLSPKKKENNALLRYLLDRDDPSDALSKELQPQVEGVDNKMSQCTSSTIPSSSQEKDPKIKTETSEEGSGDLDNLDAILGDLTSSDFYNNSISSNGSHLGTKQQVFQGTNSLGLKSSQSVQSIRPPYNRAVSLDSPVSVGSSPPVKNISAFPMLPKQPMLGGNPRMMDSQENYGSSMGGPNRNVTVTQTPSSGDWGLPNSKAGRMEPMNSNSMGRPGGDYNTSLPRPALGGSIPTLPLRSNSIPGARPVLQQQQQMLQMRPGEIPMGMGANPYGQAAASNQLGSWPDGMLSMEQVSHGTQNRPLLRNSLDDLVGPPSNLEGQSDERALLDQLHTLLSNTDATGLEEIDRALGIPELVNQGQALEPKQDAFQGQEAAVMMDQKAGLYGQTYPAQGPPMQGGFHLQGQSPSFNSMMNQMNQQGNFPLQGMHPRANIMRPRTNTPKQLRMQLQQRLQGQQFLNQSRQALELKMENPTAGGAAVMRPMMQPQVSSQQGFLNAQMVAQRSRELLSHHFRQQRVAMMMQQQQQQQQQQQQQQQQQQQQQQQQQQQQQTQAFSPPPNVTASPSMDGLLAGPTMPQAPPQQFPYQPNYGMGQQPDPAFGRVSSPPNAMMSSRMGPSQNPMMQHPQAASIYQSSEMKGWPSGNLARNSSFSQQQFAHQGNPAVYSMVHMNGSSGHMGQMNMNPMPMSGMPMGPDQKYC

What was measured:
Test in all cases: peptide or protein array; HuProt human proteome microarray; 5 ug/5 ml biotin-labelled LUBAC or OTULIN in solution, 1 h at room temperature; Cy5-streptavidin, scanned at 635 nm; BSA as negative control; hits: Z-score >= 3 and I_(Mean_Ratio) >= 1.4; both purified
SAMD4B (human) = target: T1, SAMD4B (human) (UniProt Q5PRF9)
T1 sequence: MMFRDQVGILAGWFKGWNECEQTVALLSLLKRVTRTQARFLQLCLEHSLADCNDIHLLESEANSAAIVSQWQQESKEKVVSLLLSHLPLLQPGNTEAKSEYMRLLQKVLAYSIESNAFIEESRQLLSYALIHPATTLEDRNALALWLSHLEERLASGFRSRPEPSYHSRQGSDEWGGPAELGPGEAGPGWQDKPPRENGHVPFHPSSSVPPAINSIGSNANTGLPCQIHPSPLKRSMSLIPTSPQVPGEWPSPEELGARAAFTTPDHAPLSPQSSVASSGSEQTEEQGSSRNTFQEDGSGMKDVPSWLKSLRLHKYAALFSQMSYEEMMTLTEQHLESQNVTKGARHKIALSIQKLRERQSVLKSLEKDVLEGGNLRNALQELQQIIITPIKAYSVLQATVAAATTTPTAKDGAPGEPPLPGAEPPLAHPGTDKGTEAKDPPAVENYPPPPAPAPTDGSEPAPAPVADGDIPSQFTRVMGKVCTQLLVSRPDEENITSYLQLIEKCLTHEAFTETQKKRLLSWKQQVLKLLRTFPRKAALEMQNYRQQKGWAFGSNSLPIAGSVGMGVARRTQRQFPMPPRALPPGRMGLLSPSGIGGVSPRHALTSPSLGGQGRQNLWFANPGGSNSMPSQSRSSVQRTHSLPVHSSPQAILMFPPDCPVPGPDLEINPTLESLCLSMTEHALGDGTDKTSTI

ZNF385B (human) = target: T2, ZNF385B (human) (UniProt Q569K4)
T2 sequence: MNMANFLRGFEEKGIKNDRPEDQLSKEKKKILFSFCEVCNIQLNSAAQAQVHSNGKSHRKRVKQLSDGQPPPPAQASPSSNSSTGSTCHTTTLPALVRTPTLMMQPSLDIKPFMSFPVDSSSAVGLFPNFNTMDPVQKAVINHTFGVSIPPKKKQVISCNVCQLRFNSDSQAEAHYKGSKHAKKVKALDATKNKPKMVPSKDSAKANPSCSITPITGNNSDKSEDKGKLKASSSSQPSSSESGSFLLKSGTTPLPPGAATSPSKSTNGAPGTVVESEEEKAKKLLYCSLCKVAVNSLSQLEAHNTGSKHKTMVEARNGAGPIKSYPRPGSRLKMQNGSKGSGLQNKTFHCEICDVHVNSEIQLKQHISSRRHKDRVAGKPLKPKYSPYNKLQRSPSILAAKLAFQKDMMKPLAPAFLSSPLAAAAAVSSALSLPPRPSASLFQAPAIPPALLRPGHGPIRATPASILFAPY

IRF2BP2 (human) = IRF2BP2 (human) (UniProt Q7Z5L9)
NECAP2 (human) = target: T3, NECAP2 (human) (UniProt Q9NVZ3)
T3 sequence: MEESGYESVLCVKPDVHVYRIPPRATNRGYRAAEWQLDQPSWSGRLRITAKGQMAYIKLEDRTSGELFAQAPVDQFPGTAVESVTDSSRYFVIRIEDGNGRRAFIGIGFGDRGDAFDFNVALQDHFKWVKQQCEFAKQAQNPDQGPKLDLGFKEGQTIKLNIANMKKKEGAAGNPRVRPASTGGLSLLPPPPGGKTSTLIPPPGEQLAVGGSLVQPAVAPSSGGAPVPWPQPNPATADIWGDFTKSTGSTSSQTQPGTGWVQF

HTATIP2 (human) = HTATIP2 (human) (UniProt Q9BUP3)
NCOA3 (human) = NCOA3 (human) (UniProt Q9Y6Q9)
CYB5R1 (human) = target: T4, CYB5R1 (human) (UniProt Q9UHQ9)
T4 sequence: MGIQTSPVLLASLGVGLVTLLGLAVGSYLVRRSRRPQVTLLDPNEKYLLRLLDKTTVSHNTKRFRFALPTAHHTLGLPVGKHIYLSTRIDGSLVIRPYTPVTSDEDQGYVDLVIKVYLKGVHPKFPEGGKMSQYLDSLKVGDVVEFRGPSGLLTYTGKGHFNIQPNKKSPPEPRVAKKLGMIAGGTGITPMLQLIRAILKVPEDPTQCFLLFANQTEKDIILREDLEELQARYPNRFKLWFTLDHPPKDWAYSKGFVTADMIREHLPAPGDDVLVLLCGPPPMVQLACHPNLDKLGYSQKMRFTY

Measured: binding

linear ubiquitin chain assembly complex (LUBAC), purified as HIS-tagged HOIP with the subunit HOIL-1, biotin-labelled (from UniProt Q96EP0 1-1072; Q9BYM8 1-510)
binds: all assays above
